Patent US20220372154A1 (APEXIGEN, published 2022)
These are yes or no findings as the source states them, for the method shown. Some binding calls cover weakened binding; strength is not graded here. Values belong to the binder of their own block, whether it stands above or below them.

Amino acid sequences for entries named in this document (tags omitted). Residues count along the entry.
UniProt P20333, residues 23-257: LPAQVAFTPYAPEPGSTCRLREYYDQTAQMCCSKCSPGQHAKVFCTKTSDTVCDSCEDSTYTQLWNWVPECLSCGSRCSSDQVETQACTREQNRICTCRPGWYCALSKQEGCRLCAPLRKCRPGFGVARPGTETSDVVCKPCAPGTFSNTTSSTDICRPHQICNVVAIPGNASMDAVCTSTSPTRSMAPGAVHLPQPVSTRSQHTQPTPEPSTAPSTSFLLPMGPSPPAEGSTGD

Key:
[1] = target: cynomolgus TNFR2-His tagged protein (cynomolgus); assay: ELISA
[2] = target: TNFR2 (as used in the Octet measurement) (UniProt P20333); assay: Octet (biolayer interferometry), monovalent binding
[3] = target: cynomolgus TNFR2-His tagged protein (cynomolgus); assay: ELISA on coated cynoTNFR2-His, OD 450 nm

- binding [1]: binds
- binding [2]: binds
- binding [3]: binds
B1: humanized antibody h600-25-71 (antibody, V domains shown)
VH: EVQLVESGGGLVQPGGSLRLSCAASGIDLSSYAMGWVRQAPGKGLEWVGDISTSGNAYYATWVKGRFTISRDNSKNTLYLQMNSLRAEDTAVYYCARADYGGETYAFDPWGQGTLVTVSS
VL: DIQMTQSPSSLSASVGDRVTITCQASQSISSYLNWYQQKPGKAPKLLIYSASTLASGVPSRFSGSGSGTDFTLTISSLQPEDFATYYCQQGYSDSNIDNVFGGGTKVEIK
notes: also called Ab 25-71; clone 25-71

- binding [1]: binds
- binding [2]: binds
- binding [3]: binds
B2: humanized antibody h600-25-108 (antibody, V domains shown)
VH: EVQLVESGGGLVQPGGSLRLSCAASGFSLSDYFMTWVRQAPGKGLEWVGIINTGGDSYYATWAKGRFTISRDNSKNTLYLQMNSLRAEDTAVYYCARDTGYGGYDYAGSFDPWGQGTLVTVSS
VL: DIQMTQSPSSVSASVGDRVTITCQASENINSWLAWYQQKPGKAPKLLIYEASKLASGVPSRFSGSGSGTDFTLTISSLQPEDFATYYCQQGYIYIDVGNIFGGGTKVEIK
